# From PubChem BioAssay AID1671190 (National Center for Advancing Translational Sciences (NCATS), 2021)
# The chains behind the UniProt entries cited, without tags or fusion partners. Where a name states a change or a piece, a line headed by the entry shows the natural chain unless it says otherwise.
# UniProt P18054: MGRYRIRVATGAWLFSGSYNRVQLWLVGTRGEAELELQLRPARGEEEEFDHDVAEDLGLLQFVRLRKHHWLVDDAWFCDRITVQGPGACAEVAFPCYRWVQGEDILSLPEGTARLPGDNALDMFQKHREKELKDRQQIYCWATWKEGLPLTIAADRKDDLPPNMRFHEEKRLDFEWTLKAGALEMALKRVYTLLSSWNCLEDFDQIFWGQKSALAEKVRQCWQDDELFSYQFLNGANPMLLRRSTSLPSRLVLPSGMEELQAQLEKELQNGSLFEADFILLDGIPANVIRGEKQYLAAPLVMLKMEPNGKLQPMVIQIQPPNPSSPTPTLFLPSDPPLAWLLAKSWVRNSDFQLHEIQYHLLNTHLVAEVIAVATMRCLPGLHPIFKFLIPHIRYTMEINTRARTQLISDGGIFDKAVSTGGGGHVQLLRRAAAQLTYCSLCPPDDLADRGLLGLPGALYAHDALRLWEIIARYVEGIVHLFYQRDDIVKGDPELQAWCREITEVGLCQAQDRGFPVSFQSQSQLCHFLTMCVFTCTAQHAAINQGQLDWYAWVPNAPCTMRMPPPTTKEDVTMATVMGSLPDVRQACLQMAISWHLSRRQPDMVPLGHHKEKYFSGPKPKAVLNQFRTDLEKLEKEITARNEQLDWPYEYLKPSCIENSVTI
# Several values for one entry are separate records, joined by “and”; a condition that tells them apart may be missing. Identical values can stand only once. The whole screen tested about 580,000 compounds, of which about 6,100 (1.1%) were called active. Inconclusive means that the source gave no clear call. Such entries were picked first, then a sample of the others. Calls follow the shape of the dose curve; as a rule, active = well fitted inhibition curve with a large enough effect; inconclusive = small, poorly fitted or top-dose-only effect, or another doubt; inactive = no such curve, though single readings can be large or run the other way. Potencies beside an inconclusive call are fits to weak or partial responses and may not hold up.
# Target: Polyunsaturated fatty acid lipoxygenase ALOX12 (Homo sapiens) (UniProt P18054)
# Test: Primary qHTS assay for inhibitors of human arachidonate 12S-lipoxygenase (ALOX12): Round 2
# Conditions: purified 12hLO, xylenol orange hydroperoxide absorbance; series mostly up to 108 µM
# In short: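 Hydroperoxide product was detected by ferrous iron/xylenol orange as the 573 to 405 nm absorbance ratio. Arachidonic acid at 40 uM (final) was turned over for 30 min at room temperature by 150 nM human 12hLO, pH 7.0 Hepes buffer, after 15 min compound preincubation.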
# Potency is read from the fitted curve at half-maximal effect.
row,SMILES,Potency
1,CC1(C(=O)NCC2CC2)CCN1C(=O)C/C=C/c1ccccc1 (configuration not stated),"inconclusive: 31.6 µM [inhibitor, partial curve, poor fit]"
2,COC(=O)c1ccc(C2/C(=C(/O)c3ccc(OC(C)C)cc3)C(=O)C(=O)N2c2cc(C)on2)cc1 (configuration not stated),"inconclusive: 0.562 µM [inhibitor, full curve, poor fit]"
3,CC(C)OC(=O)CCC(=O)Nc1ccc(F)cc1,inactive
4,Brc1ccccc1OCCOCCOc1cccc2cccnc12,"inconclusive: 126 µM [inhibitor, single point]"
5,CCCCCNC(=O)C(=O)C(=O)c1cc(OC)c(OC)c(OC)c1,"inconclusive: 44.7 µM [inhibitor, partial curve, poor fit]"
6,CNC(=O)[C@@H](c1ccccc1F)N1CCC[C@H]1C(=O)N1CCOCC1,"inconclusive: 12.6 µM [inhibitor, full curve]"
7,CCCCn1c(NC(=O)c2ccc(Br)o2)c(S(=O)(=O)c2ccccc2)c2nc3ccccc3nc21,"inconclusive: 1.26 µM [inhibitor, partial curve, poor fit]"
8,CC(=O)Nc1nnc(SCc2cc(=O)c3cccc(Cl)c3[nH]2)s1,inactive
9,COc1ccc(-c2nc(N=Nc3ccc(O)cc3)n[nH]2)cc1,"inconclusive: 44.7 µM [inhibitor, full curve, poor fit]"
10,CCn1c(CCC(N)=O)nnc1SC(C)C(=O)c1c[nH]c2ccccc12 (configuration not stated),"inconclusive: 50.1 µM [inhibitor, partial curve, poor fit]"
11,O=C(NC[C@H]1Cn2ccnc2CO1)c1ccccc1,inactive
12,COc1cc(OC)cc(C(=O)N2CCC(c3n[nH]c(=O)n3-c3ccc(C)cc3)CC2)c1,inactive
13,N#Cc1ncc(Cc2ccccc2)nc1C#N,inactive
14,CCOC(=O)c1c(NC(=O)CSc2nc(-c3ccccc3)cc(C(F)(F)F)n2)sc(C)c1C,"inconclusive: 63.1 µM [inhibitor, partial curve, poor fit]"
15,O=C(c1cccs1)N1CCCN(C(=O)C2CC2)c2ccccc21,inactive
16,Cc1ccc(-c2nnn(CC(=O)N(Cc3ccccc3)C(C(=O)NC3CCCC3)c3ccncc3)n2)o1 (configuration not stated),"inconclusive: 63.1 µM [inhibitor, partial curve, poor fit]"
17,O=C(NC1CC1)c1cccc(NC(=O)c2cnn(-c3ccccc3)n2)c1,inactive
18,Cc1ccc(CNC(=O)C2CCN(C(=O)c3csc(Nc4ccc(C)cc4)n3)CC2)cc1,"inconclusive: 0.631 µM [inhibitor, full curve, poor fit]"
19,COc1ccc(CC(=O)NCCc2ccc(S(N)(=O)=O)cc2)cc1,"inconclusive: 126 µM [inhibitor, partial curve, poor fit]"
20,C/C=C(\C)CN1CCN(c2ccc(C)cc2)CC1,"inconclusive: 0.631 µM [inhibitor, full curve, poor fit]"
21,Cn1cc(CCCBr)c2ccccc21,"inconclusive: 39.8 µM [inhibitor, partial curve, poor fit]"
22,COc1ccc(C(=O)Nc2ccc3oc(-c4ccccc4)cc(=O)c3c2)cc1OC,inactive
23,N#Cc1ccc(/C=C/c2nc3c(ccc4ccccc43)s2)cc1,"inconclusive: 50.1 µM [inhibitor, partial curve, poor fit]"

row,SMILES,Potency
1,COc1cccc2oc(-c3ccco3)cc(=O)c12,"inconclusive: 28.2 µM [inhibitor, partial curve]"
2,CC1=C(C(=O)OC(C)C)C(c2ccc(Cl)c(Cl)c2)CC(=O)N1 (configuration not stated),inactive
3,Cc1ccc(OCC(=O)NCCN2CCN(S(=O)(=O)c3ccc(C)cc3)CC2)cc1,"inconclusive: 39.8 µM [inhibitor, partial curve, poor fit]"
4,Oc1cc(-c2nc3ccccc3s2)cc2c1OCCN(Cc1cccn1-c1ccccn1)C2,"inconclusive: 89.1 µM [inhibitor, single point]"
5,O=c1c([N+](=O)[O-])c(O)c2cccc3c2n1CCC3,inactive
6,COc1ccc(-c2cscc2N)cc1,"inconclusive: 89.1 µM [inhibitor, single point]"
7,CC(=O)N1c2ccc(S(=O)(=O)N3CCCCCC3)cc2CC1C(=O)NCc1ccccc1F (configuration not stated),"inconclusive: 141 µM [inhibitor, partial curve, poor fit]"
8,O=C(N/N=C/c1ccncc1)c1ccc(-n2cccc2)cc1,inactive
9,CC(C(=O)c1c[nH]c2ccccc12)N1CCC(C(=O)N2CCCCCC2)CC1 (configuration not stated),inactive
10,Cc1ccc(N2C(=O)C3C4C=CC(CNC(=S)N5CCN(c6ccccc6)CC5)(O4)C3C2=O)cc1 (configuration not stated),inactive
11,CNC(=O)c1[nH]cnc1C(=O)Nc1cccc(OC)c1,inactive
12,c1coc(CSSCc2ccco2)c1,"inconclusive: 17.8 µM [inhibitor, full curve, poor fit]"
13,CNC(=O)[C@@H]1CN(C(=O)Cn2nc(C(F)(F)F)cc2C)C[C@H]1CO,inactive
14,C/C(=N/NS(=O)(=O)c1cccc([N+](=O)[O-])c1)c1ccc2c(c1)OCO2,inactive
15,CC(C)(C)NCCC(=O)O,"inconclusive: 10 µM [inhibitor, partial curve, poor fit]"
16,Clc1ccc(CNC[C@H]2Cn3c(-c4ccccc4)cnc3CO2)cc1,active: 25.1 µM
17,COC(=O)C1=C(C)N(Cc2ccc(C(F)(F)F)cc2)C(=NCc2ccc(C(F)(F)F)cc2)NC1c1cccc(C(F)(F)F)c1 (configuration not stated),"inconclusive: 112 µM [inhibitor, partial curve, poor fit]"
18,O=C(NCC(c1ccccc1)c1c[nH]c2ccccc12)c1ccc[n+]([O-])c1 (configuration not stated),inactive
19,Oc1ccc(/C=N/Nc2ccc(C(F)(F)F)cn2)c(O)c1,inactive
20,CCc1ccc(C(CNS(=O)(=O)c2cccs2)N(C)C)cc1 (configuration not stated),inactive
21,Cc1cc(C)c2cc(C(=O)N3CCN(c4ncccc4C(F)(F)F)CC3)[nH]c2c1,"inconclusive: 28.2 µM [inhibitor, partial curve, poor fit]"
22,S=C(NCc1ccc(Cl)c(Cl)c1)Nc1ccccc1Cl,"inconclusive: 25.1 µM [inhibitor, partial curve, poor fit]"
23,CCOC(=O)C(=O)Nc1nnc(CCc2ccccc2)s1,"inconclusive: 3.98 µM [inhibitor, full curve, poor fit]"

row,SMILES,Potency
1,COc1ccc(CNCC(=O)Nc2cccc(S(N)(=O)=O)c2)cc1,"inconclusive: 0.708 µM [inhibitor, full curve, poor fit]"
2,CCCCN(C(=O)c1ccc(-c2ccc(Cl)cc2)o1)c1c(N)n(CCC)c(=O)[nH]c1=O,"active: 15.8 µM and inconclusive: 100 µM [inhibitor, single point]"
3,Nc1[nH]c(C(=O)c2ccccc2)c(-c2ccc(F)cc2)c1C(=O)NCc1ccccc1,"inconclusive: 4.47 µM [inhibitor, full curve, poor fit]"
4,Cc1ccc(NC(=S)NCCSc2ccc(Cl)cc2)cc1,active: 39.8 µM
5,OC(C1=CC(=Cc2ccncc2)c2ccccc21)c1ccncc1 (configuration not stated),"inconclusive: 50.1 µM [inhibitor, partial curve, poor fit]"
6,S=c1[nH]nc2sc3ccccc3n12,inactive
7,CC(C)(C)c1ccc(-c2csc(NNC3=NCCCCC3)n2)cc1,"inconclusive: 31.6 µM [inhibitor, partial curve]"
8,CC(=O)OCCN1CCN(C(=O)CN2C(=O)NC(c3ccccc3)(c3ccccc3)C2=O)CC1,"inconclusive: 141 µM [inhibitor, single point]"
9,Cc1c(NC(=S)NC(=O)c2ccc(COc3ccccc3)cc2)cccc1C(=O)O,"inconclusive: 10 µM [inhibitor, full curve, poor fit]"
10,CN(Cc1ccccc1)C(=O)[C@@H]1CCCN1C(=O)[C@@H]1CCCN1C(=O)c1c(F)cccc1F,"inconclusive: 126 µM [inhibitor, single point]"
11,C=CCn1c(Cc2ccccc2)nnc1SCc1nc2ccccc2c(=O)[nH]1,"inconclusive: 63.1 µM [inhibitor, partial curve, poor fit]"
12,CCCCN(C)S(=O)(=O)N(C)Cc1ccc2c(c1)OCCO2,inactive
13,COc1ccc(CN2CCN(Cc3ccncc3)CC2)c(OC)c1,"inconclusive: 0.562 µM [inhibitor, full curve, poor fit]"
14,CC(C)C(c1nnnn1C(C)(C)C)N1CCN(Cc2cccnc2)CC1 (configuration not stated),"inconclusive: 5.62 µM [inhibitor, full curve]"
15,CCOC(=O)c1[nH]c2ccccc2c1NC(=O)c1ccc(S(=O)(=O)N2CCOCC2)cc1,"inconclusive: 89.1 µM [inhibitor, single point]"
16,CC(=O)NS(=O)(=O)c1ccc(NC(=O)c2ccc3c(c2)C(=O)N(CCC(C)C)C3=O)cc1,"inconclusive: 126 µM [inhibitor, partial curve, poor fit]"
17,Cc1nc2ccc(NC(=O)c3ccc(=O)[nH]c3)cc2s1,"inconclusive: 89.1 µM [inhibitor, single point]"
18,O=C(Cc1cc(Cl)c2c(c1)OCCO2)NC1CCN(CC2CCCCC2)CC1,inactive
19,CCCCCCCCNC(C)C(O)c1ccc(SC(C)C)cc1 (configuration not stated),"inconclusive: 112 µM [inhibitor, single point] and inconclusive: 70.8 µM [inhibitor, partial curve, poor fit]"
20,COc1ccc(CNc2ncnc(N)n2)cc1,"inconclusive: 44.7 µM [inhibitor, partial curve, poor fit]"
21,Cc1cc(C)cc(NC(=O)C(NCCN2CCOCC2)c2ccccc2)c1 (configuration not stated),inactive
